Results deposited as PubChem BioAssay AID1259405 (NCATS, 2018).

- Aim: 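Silenced genes that increase secreted GFP made by CHO cells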 (primary screen)
- System: Chinese hamster CHO-K1 ovary cells with stable secreted eGFP expression
- Knock-down reagent: single siRNA against mouse genes, 0.8 pmol siRNA per well (2 µl of 400 nM stock)
- Duration: 3 days
- Read-out: 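Per-well intracellular GFP measured by laser scanning cytometry, plus viability from ATP luminescence, each relative to plate median of non-targeting control wells, in %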
- Direction: GFP, % of control: higher = more GFP per well, higher productivity; viability (ATP), % of control: higher = more viable cells (more ATP)
- Active means: 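Called active when intracellular GFP, relative to negative control, is at or above 120%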
In all, the deposit lists about 50,000 reagents; shown is an unselected part. About 4,000 of all reagents (8%) count as active. 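Mouse siRNA library applied to hamster cells; one well for each siRNA.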 Entries without a mark were called inactive. Reagents against one gene are numbered here.

With Lrrc45 #1, what was measured?
GFP, % of control: 70.6; viability (ATP), % of control: 78.2

How did the screen score Lrrc45 #2?
GFP, % of control: 84.2; viability (ATP), % of control: 76.2

With Lrrc45 #3, what does the deposit list?
GFP, % of control: 110; viability (ATP), % of control: 143

How did the screen score Lamp5 #1?
GFP, % of control: 74.3; viability (ATP), % of control: 45.5

What is on record for Lamp5 #2?
GFP, % of control: 60.8; viability (ATP), % of control: 83

For Lamp5 #3, what does the deposit list?
GFP, % of control: 90.8; viability (ATP), % of control: 96.1

With Or2a57 #1, how do the results read?
GFP, % of control: 85; viability (ATP), % of control: 62.7

How did the screen score Or2a57 #2?
GFP, % of control: 95.5; viability (ATP), % of control: 57.1

What did the screen give for Or2a57 #3?
GFP, % of control: 31.6; viability (ATP), % of control: 29.3

Only “viability (ATP), % of control”, for 2 of the entries above:
Or2a57 #1	62.7
Or2a57 #2	57.1

The results go on:
For Fan1 #1, what does the deposit list?
GFP, % of control: 103; viability (ATP), % of control: 74.9

For Fan1 #2, how do the results read?
GFP, % of control: 76.4; viability (ATP), % of control: 92.9

With Fan1 #3, what was measured?
GFP, % of control: 84.7; viability (ATP), % of control: 93.5

For Kif2a #1, what was measured?
GFP, % of control: 67; viability (ATP), % of control: 74.1

With Kif2a #2, how do the results read?
GFP, % of control: 57.7; viability (ATP), % of control: 52.8

What did the screen give for Krt13 #1?
GFP, % of control: 45.5; viability (ATP), % of control: 49.5

What did the screen give for Krt13 #2?
GFP, % of control: 65.1; viability (ATP), % of control: 67.8

For Krt13 #3, what does the deposit list?
GFP, % of control: 114; viability (ATP), % of control: 75.1
